# Results deposited as PubChem BioAssay AID504808 (Drosophila RNAi Screening Center, 2011)
# Screen: 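Fly genes required to hold E2F transcription in check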 (primary screen)
# Cells: Drosophila S2 cells
# Reagent: long dsRNA against Drosophila genes
# Measurement: 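Firefly luciferase driven by E2F sites, normalised to Renilla luciferase on the same minimal promoter, measured by plate reader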
# Reading the numbers: E2F firefly: higher = more E2F reporter activity; Renilla normaliser: higher = more normaliser reporter signal
# Call rule: 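Called active if the normalised E2F reporter went up by over 50%; the cutoff is arbitrary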
# In all, the deposit lists about 21,000 reagents; shown is an unselected part of those with a known target gene and a result. Over the whole deposit, 18 (0.084%) are marked active. 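Raw counts without plate normalisation, one of two replicates; the ratio scores behind the calls were not deposited.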 The numbers tell different reagents against one gene apart. Names joined by + are all predicted targets of the reagent. No sequences are given here. Not given: the amount of reagent, the time to read-out.
Gene,dsRNA no.,"E2F firefly, rep 1","Renilla normaliser, rep 1",Call
CG8230,1,1.44e5,5092,inactive
Septin1,1,1.24e5,6702,inactive
dec,1,1.14e5,5673,inactive
mmd,1,1.21e5,4599,inactive
mmd,2,2.25e5,6629,inactive
mmd,3,2.23e5,6660,inactive
slv,1,1.59e5,5218,inactive
wry,1,1.65e5,5450,inactive
wry,2,1.65e5,5988,inactive
CG42361,1,1.04e5,4490,inactive
CG14326,1,99041,5421,inactive
CG4480,1,1.05e5,4231,inactive
dimm,1,1.06e5,4641,inactive
CG8840,1,1.44e5,4549,inactive
TotB,1,1.44e5,7218,inactive
Frq2,1,1.57e5,6310,inactive
CG10738,1,1.38e5,7230,inactive
RpS19b,1,76729,6069,inactive
Sema5c,1,1.12e5,6081,inactive
CG33992 (retired record) + CG43755,1,1.34e5,5224,inactive
CG34200,1,1.33e5,6386,inactive
CG31816,1,1.42e5,5716,inactive
CG33159,1,61194,3171,inactive
CG11583,1,53501,3454,inactive
Gdh,1,66406,3457,inactive
CG2533,1,71898,4183,inactive
Atf3,1,85029,4612,inactive
PolG1,1,88839,3815,inactive
Gapvd1,1,1.09e5,5793,inactive
pcs,1,2981,186,inactive
CG5646,1,1737,948,inactive
CG5757,1,66379,3435,inactive
Acsf3,1,5640,354,inactive
CG8172,1,1.53e5,4688,inactive
mRpS17,1,99632,4513,inactive
CG13293,1,94004,3932,inactive
Sirt4,1,1.09e5,5549,inactive
cno,1,84099,3867,inactive
cno,2,50671,2215,inactive
CG6660,1,64561,2735,inactive
TwdlJ,1,1.04e5,6882,inactive

The list goes on; the last 12 above are carried over.
Gene,dsRNA no.,"E2F firefly, rep 1","Renilla normaliser, rep 1",Call
pcs,1,2981,186,inactive
CG5646,1,1737,948,inactive
CG5757,1,66379,3435,inactive
Acsf3,1,5640,354,inactive
CG8172,1,1.53e5,4688,inactive
mRpS17,1,99632,4513,inactive
CG13293,1,94004,3932,inactive
Sirt4,1,1.09e5,5549,inactive
cno,1,84099,3867,inactive
cno,2,50671,2215,inactive
CG6660,1,64561,2735,inactive
TwdlJ,1,1.04e5,6882,inactive
CG7656,1,81101,3495,inactive
CG3119,1,1.54e5,5261,inactive
Npc2g,1,1.33e5,5994,inactive
DMAP1,1,86861,3659,inactive
GstE6,1,1.61e5,5148,inactive
asf1,1,68372,4039,inactive
dbo,1,1.45e5,6861,inactive
CG34234 + Dh44-R2,1,152,41,inactive
TwdlM,1,96360,5814,inactive
Lis-1,1,1.58e5,5887,inactive
Cyp308a1,1,1.36e5,6686,inactive
CG12688 (retired record),1,84288,4851,inactive
CG12688 (retired record),2,53465,3780,inactive
CG5079,1,60091,3810,inactive
CG32801,1,1.23e5,5492,inactive
Alp1,1,71753,2845,inactive
aust,1,1.38e5,4987,inactive
Gyg,1,89964,5129,inactive
Gyg,2,1.03e5,4468,inactive
mEFTu2,1,86209,3083,inactive
l(2)37Cb,1,79374,3246,inactive
CG31855,1,87902,3833,inactive
Hacd1,1,88717,3867,inactive
orion,1,1.22e5,5425,inactive
orion,2,1.09e5,4903,inactive
nur,1,1.35e5,5651,inactive
CG33489,1,87164,5117,inactive
Ocho,1,1.70e5,7895,inactive
CG5819,1,1.03e5,4404,inactive
CG11438,1,1.34e5,6882,inactive
CG6106,1,1.54e5,6816,inactive
witty,1,1.48e5,5042,inactive
gcm2,1,1.39e5,4779,inactive
Ccp84Ab,1,1.11e5,7294,inactive
CG7685,1,1.24e5,7483,inactive
CG7322,1,1.35e5,5282,inactive
CG15739,1,46981,3687,inactive
Prp16,1,7687,760,inactive
Prp16,2,1.07e5,6254,inactive
Jheh3,1,68915,3307,inactive
CG5357 (retired record),1,1.10e5,4166,inactive
CG11815,1,1.06e5,4590,inactive
Cpr65Ay,1,1.33e5,4466,inactive
